# Hit rate of the full screen: of about 340,000 compounds, about 6,200 (1.8%) were called active. The inconclusive results got no clear call from the source; some entries with a clear call stand among them for comparison. Calls come from the whole dose curve; as a rule, active = well fitted activation curve with a large enough effect; inconclusive = small, poorly fitted or top-dose-only effect; inactive = no such curve, though single readings can be large or run the other way. Where the call is inconclusive, the potency comes from a doubtful curve fit.
# Assay: A quantitative high throughput screen for small molecules that induce DNA re-replication in SW480 colon adenocarcinoma cells. For re-replication activation: % of control where 0% means no effect. Note: nearly all actives have a fitted effect of over 55% in size.
# Settings: Hoechst DNA content imaging, 48 h; re-replication activation: at 46.1 µM (top of the series) unless noted
# How it was run: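 DNA re-replication was detected as more nuclei of elevated Hoechst intensity after 48 hr exposure to compound (23 nL pinned per well of 250 cells).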
# Potency is the fitted concentration of half-maximal effect.
Structure (SMILES),Potency,re-replication activation
Cc1cccc(-n2c(O)c(C=NC3CCS(=O)(=O)C3)c3ccccc3c2=O)c1C (stereo not given),"inconclusive: 29.1 µM [activator, single point]",
O=C(CCNS(=O)(=O)c1ccc(Br)cc1)N1CCN(c2ccccc2O)CC1,"inconclusive: 7.31 µM [activator, partial curve, poor fit]",
COCCN1CC(CNC(=O)c2cc(COc3ccc(C)c(C)c3)on2)CC1=O (stereo not given),"inconclusive: 23.1 µM [activator, partial curve, poor fit]",
Cc1cc(NC(=S)Nc2ccccc2)ccc1Br,"inconclusive: 20.6 µM [activator, single point]",
CC(=O)NC(NC(=S)Nc1ccc(S(N)(=O)=O)cc1)C(Cl)(Cl)Cl (stereo not given),"inconclusive: 29.1 µM [activator, partial curve, poor fit]",
COc1cc(C)c(S(=O)(=O)N2CCOCC2)cc1C,active: 8.2 µM,
CCOc1cc(Br)c(C=O)cc1OCC,active: 13 µM,
O=C(Nc1cccc(NC(=O)c2ccccc2[N+](=O)[O-])n1)c1ccccc1[N+](=O)[O-],"inconclusive: 29.1 µM [activator, single point]",
CC(=O)[C@@H]1[C@@H](C(=O)c2ccc(F)cc2)[C@]2(C(=O)Nc3ccccc32)[C@H]2C=Cc3cc(F)ccc3N12,"inconclusive: 29.1 µM [activator, single point]",
Cc1cccc(C)c1NC(=S)N/N=C/c1ccc(C(=O)O)cc1,"inconclusive: 29.1 µM [activator, single point]",
CCOc1ccc(C(C(=O)NCCC(C)C)N(CCO)C(=O)c2snc(C(N)=O)c2N)cc1 (stereo not given),,inactive: -1.6%
COc1ccc(/C=C2\CCCC3C2=NN(C(=O)c2scnc2C)C3c2ccc(OC)cc2)cc1 (stereo not given),"inconclusive: 35.5 µM [activator, single point]",
CCOC(=O)N1CCC(NS(=O)(=O)c2ccc(NC(C)=O)c(Cl)c2)CC1,"inconclusive: 0.92 µM [activator, partial curve, poor fit]",
CCc1cc2c(CN3CCN(C)CC3)cc(=O)oc2cc1O,"inconclusive: 6.51 µM [activator, partial curve, poor fit]",
CCC1=C(OC(=O)c2ccccc2)C(C)(C)C(c2ccccc2)OC1=O (stereo not given),,inactive: -2.46%
CN(C)CCNc1c2c(c(C#N)c3nc4ccccc4n13)CCCC2,"inconclusive: 20.6 µM [activator, single point]",
CS(=O)(=O)c1ccccc1C(=O)Nc1cc(Cl)ccc1-n1cncn1,,inactive: -1.44%
CCCN=Cc1c(CCC)[nH]n(-c2nc3ccccc3s2)c1=O,"inconclusive: 29.1 µM [activator, single point]",
COc1ccc(C(=O)C(CN2CCOCC2)c2ccccc2)cc1F (stereo not given),"inconclusive: 9.2 µM [activator, single point]",
O=C1c2ccccc2NC(c2c(Cl)cccc2Cl)N1Cc1ccccc1 (stereo not given),"inconclusive: 16.4 µM [activator, partial curve, poor fit]",
CC(NC(=O)Nc1cccc(Cl)c1)C(c1cccs1)N1CCCC1 (stereo not given),"inconclusive: 9.2 µM [activator, partial curve]",
O=C(COC(=O)c1ccccc1C(=O)c1ccccc1)Nc1cccc([N+](=O)[O-])c1,,inactive: 20.2%

# Complete entries, looked up by structure.
# `CN(C)CCNc1c2c(c(C#N)c3nc4ccccc4n13)CCCC2` as listed: Potency: inconclusive: 20.6 µM [activator, single point]
# `CS(=O)(=O)c1ccccc1C(=O)Nc1cc(Cl)ccc1-n1cncn1` as listed: re-replication activation: inactive: -1.44%
# `CCc1cc2c(CN3CCN(C)CC3)cc(=O)oc2cc1O` as listed: Potency: inconclusive: 6.51 µM [activator, partial curve, poor fit]

# Later entries

Structure (SMILES),Potency,re-replication activation
CCc1ccc(OCC(=O)Nc2ccc3c(c2)OCCO3)cc1,,inactive: -1.44%
COc1ccccc1/C=C/C=N/NC(=O)c1cc(-c2ccc(C)o2)[nH]n1,"inconclusive: 29.1 µM [activator, single point]",
CC(=O)Nc1cccc(NC(=O)c2cccc3cccnc23)c1,"inconclusive: 4.11 µM [activator, single point]",
CCCNc1sc(S(=O)(=O)CCC)nc1S(=O)(=O)c1ccc(C)cc1,"inconclusive: 23.1 µM [activator, partial curve, poor fit]",
O=C(CSCc1cc(=O)n2ccsc2n1)Nc1ccc(F)cc1,"inconclusive: 29.1 µM [activator, single point]",
O=C(Nc1ccc(Cl)cc1N1CCOCC1)C1CCCO1 (stereo not given),,inactive: 3.42%
Cc1ccc(S(=O)(=O)Nc2ccc(C(=O)OCC(=O)N(CCC#N)c3ccccc3)cc2)cc1C,"inconclusive: 29.1 µM [activator, single point]",
Cc1ccc(C(=O)C(c2ccccc2)N2Cc3ccccc3C2=N)cc1 (stereo not given),"inconclusive: 29.1 µM [activator, single point]",
COc1cccc(C=CC(=O)C=CC=Cc2ccccc2)c1,"inconclusive: 29.1 µM [activator, single point]",
CC1(S(=O)(=O)O)CC(=O)c2ccccc2C1=O (stereo not given),active: 14.6 µM,
COC(=O)Cc1cc(=O)oc2cc(O)ccc12,active: 18.4 µM,
COc1cnc(-c2ccccn2)nc1Oc1c(C)cccc1C,"inconclusive: 29.1 µM [activator, single point]",
COc1ccc(S(=O)(=O)Nc2ccc(O)c(Sc3ncn[nH]3)c2)cc1,"inconclusive: 29.1 µM [activator, partial curve, poor fit]",
Cn1cc(CNCc2cn(C)nc2-c2ccc(C3CCCCC3)cc2)cn1,"inconclusive: 25.9 µM [activator, single point]",
COc1cccc(COc2ncnc3sccc23)c1,"inconclusive: 6.51 µM [activator, single point]",
CNC(=S)N/N=C/c1c(C)nn(-c2ccccc2)c1Cl,"inconclusive: 29.1 µM [activator, single point]",
COc1ccc(C(=O)Nc2cnc(NC(=O)c3cccs3)cc2C)cc1,"inconclusive: 29.1 µM [activator, single point]",
Cc1sc2nc(C3CC3)nc(SCC(=O)N3c4ccccc4CC3C)c2c1C (stereo not given),active: 14.6 µM,
Cc1ccc(C)c(C(=O)COC(=O)c2c(-c3ccccc3)noc2C)c1,,inactive: -2.15%
Cc1ccc(C2(C)NC(=O)N(CC(=O)N3c4ccccc4NC(=O)CC3C)C2=O)cc1 (stereo not given),"inconclusive: 29.1 µM [activator, partial curve, poor fit]",
NCCNC(=O)Cc1ccc(NC(=O)Cc2ccc(Nc3ncnc4c3ncn4[C@@H]3O[C@H](CO)[C@@H](O)[C@H]3O)cc2)cc1,"inconclusive: 0.501 µM [activator, partial curve, poor fit]",
COc1ccc2c(c1)C=CC1(O2)N(CCO)c2ccccc2C1(C)C (stereo not given),"inconclusive: 32.6 µM [activator, partial curve, poor fit]",

Structure (SMILES),Potency,re-replication activation
Cc1cc(C)c(OCCCCNCc2ccccc2)c(Cl)c1,"inconclusive: 23.1 µM [activator, single point]",
CCN(CC)c1nc2c(c(=O)[nH]c(=O)n2C)n1Cc1ccccc1,"inconclusive: 11.6 µM [activator, single point]",
Cc1c(NC(=O)C(C)OC(=O)c2ccc([N+](=O)[O-])cc2Cl)c(=O)n(-c2ccccc2)n1C (stereo not given),"inconclusive: 23.1 µM [activator, single point]",
CCOC(=O)CN(C(=O)c1snc(C(N)=O)c1N)C(C(=O)NC1CCCCC1)c1ccc(F)cc1 (stereo not given),"inconclusive: 2.91 µM [activator, single point]",
O=C(CN1C(=O)NC(c2ccccc2)(c2ccccc2)C1=O)NCc1cccs1,"inconclusive: 0.651 µM [activator, full curve, poor fit]",
O=C(CCCCC(=O)Nc1ccc(F)cc1)Nc1ccc(F)cc1,"inconclusive: 14.6 µM [activator, single point]",
COc1cc(/C(C)=N\NC(N)=S)cc(OC)c1OC,"inconclusive: 20.6 µM [activator, partial curve, poor fit]",
COc1ccc(OC)c(NC(=O)CSc2ccc3nnc(-c4ccccn4)n3n2)c1,"inconclusive: 3.26 µM [activator, single point]",
CC(C)COc1ccc(C(=O)OC2CC(C)(C)OCC2CN(C)C)cc1 (stereo not given),"inconclusive: 29.1 µM [activator, single point]",
COc1ccc(OC)c(/C=N/NC(=O)CCN2CCN(C(c3ccccc3)c3ccccc3)CC2)c1,,inactive: 7.25%
CC(=O)Nc1ccc(S(=O)(=O)NCCC(=O)OCc2csc(CC(=O)Nc3ccccc3C)n2)cc1,,inactive: -567%
COc1ccc(S(=O)(=O)Nc2ccc(-n3cccc3)cc2)cc1,"inconclusive: 3.66 µM [activator, partial curve, poor fit]",
O=C(Nc1ccc(NC(=O)c2ccc([N+](=O)[O-])o2)cc1Cl)c1ccco1,active: 2.06 µM,
COc1cc(C(CCN2CCN(c3ccccc3)CC2)c2c(OC)cc(OC)c3c(C)cc(=O)oc23)cc(OC)c1OC (stereo not given),"inconclusive: 20.6 µM [activator, partial curve, poor fit]",
O=C(NNC(=S)NC(=O)c1cccs1)c1ccc(O)cc1,"inconclusive: 3.66 µM [activator, single point]",
CCCC(=O)OCCNc1cc(SCc2ccco2)c2nonc2c1[N+](=O)[O-],"inconclusive: 29.1 µM [activator, single point]",
COc1ccc(C(=O)N/N=C/c2c(CO)cnc(C)c2O)cc1,,inactive: -9.61%
Cc1ccc(S(=O)(=O)CC(=O)Nc2nc3ccc(S(N)(=O)=O)cc3s2)cc1,"inconclusive: 16.4 µM [activator, single point]",
C=CCN1C(=O)C(CC(=O)Nc2ccc(OC)cc2)N(Cc2ccco2)C1=S (stereo not given),,inactive: 0.422%
COC(=O)C1CCN(C(=O)Nc2ccccc2)CC1,"inconclusive: 0.58 µM [activator, full curve, poor fit]",
O=C1NC(=Nc2ccc(O)cc2)S/C1=C\C=C\c1ccco1,"inconclusive: 18.4 µM [activator, single point]",

# Reprinted at random: two compounds from above, in no set order.
Structure (SMILES),Potency,re-replication activation
COc1ccc(OC)c(/C=N/NC(=O)CCN2CCN(C(c3ccccc3)c3ccccc3)CC2)c1,,inactive: 7.25%
CCN(CC)c1nc2c(c(=O)[nH]c(=O)n2C)n1Cc1ccccc1,"inconclusive: 11.6 µM [activator, single point]",
